Data: patent US20160279215A1, “NOVEL PEPTIDES AND COMBINATION OF PEPTIDES FOR USE IN IMMUNOTHERAPY AGAINST VARIOUS TUMORS” (immatics biotechnologies GmbH, priority 2015, published 2016)
For part of these data: Expression values are those of the mRNA of the gene that encodes the peptide; a gene is named only where it was looked up.

How the values were obtained:
Design in all cases: species or system human
[1] = Identification and label-free relative LC-MS quantitation of HLA-presented peptides on tumor and normal tissue samples (XPRESIDENT presentation profiles); conditions: for Entities of particular interest: entities where the peptide was over-presented on cancer samples compared to normal tissues; for Additional entities of particular interest (presentation of selected peptides across entities): tumor entities on which the HLA-presented peptide was found, entity abbreviations defined in the title of Table 4B
[2] = Absolute quantitation of TUMAP copies per cell in tumor samples by nanoLC-MS/MS; conditions: absolute peptide quantitation in tumor samples; median over samples
[3] = system: source genes of the peptides (mRNA) in tumor and normal tissue; assay: Expression profiling of source genes by RNAseq (target coverage); conditions: share of tumors with more than 1.5-fold over-expression vs highest-expressing relevant normal tissue; for Target coverage for source genes, AML (%): acute myeloid leukemia; for Target coverage for source genes, BRCA (%): breast cancer; for Target coverage for source genes, CLL (%): chronic leukemia (CLL); for Target coverage for source genes, OSCAR (%): esophageal cancer incl. gastric-oesophageal junction; for Target coverage for source genes, GBC_CCC (%): gallbladder adenocarcinoma and cholangiocarcinoma; for Target coverage for source genes, MEL (%): melanoma; for Target coverage for source genes, NHL (%): non-Hodgkin lymphoma; for Target coverage for source genes, SCLC (%): small cell lung cancer; for Target coverage for source genes, UBC (%): urinary bladder cancer; for Target coverage for source genes, UTC (%): uterine cancer; for Target coverage for source genes, OC (%): ovarian cancer

Row | Substance | Entities of particular interest [1] | Additional entities of particular interest (presentation of selected peptides across entities) [1] | Copies per cell (median) [2] | Target coverage for source genes, AML (%) [3] | Target coverage for source genes, BRCA (%) [3] | Target coverage for source genes, CLL (%) [3] | Target coverage for source genes, OSCAR (%) [3] | Target coverage for source genes, GBC_CCC (%) [3] | Target coverage for source genes, MEL (%) [3] | Target coverage for source genes, NHL (%) [3] | Target coverage for source genes, SCLC (%) [3] | Target coverage for source genes, UBC (%) [3] | Target coverage for source genes, UTC (%) [3] | Target coverage for source genes, OC (%) [3]
1 | 24: peptide found in MMP13 (gene looked up) (KVWSDVTPL; listed as Homo sapiens) [compound 24] | PC, NSCLC | BRCA | + (<100 = +) | I (<19% over-expression = I) | IV (>70% = IV) | I (<19% over-expression = I) | IV (>70% = IV) | IV (>70% = IV) | II (20-49% = II) | I (<19% over-expression = I) | II (20-49% = II) | IV (>70% = IV) | IV (>70% = IV) | 
2 | 14: peptide found in MMP1 (gene looked up) (YTFSGDVQL; listed as Homo sapiens) [compound 14] | GC, NSCLC, CRC, PC, OSCAR | SCLC, UBC, UTC, GBC_CCC, MEL | ++ (>=100 = ++) | I (<19% over-expression = I) | I (<19% over-expression = I) | I (<19% over-expression = I) | IV (>70% = IV) | I (<19% over-expression = I) | II (20-49% = II) | I (<19% over-expression = I) | I (<19% over-expression = I) | III (50-69% = III) | I (<19% over-expression = I) | I (<19% over-expression = I)
3 | 253 (KLLAVIHEL; listed as Homo sapiens) [compound 253] | NSCLC, RCC, CRC, PC, OSCAR, OC | UBC, BRCA, GBC_CCC, MEL, AML, NHL | +++ (>=1,000 +++) |  |  |  |  |  |  |  |  |  |  | 
4 | 264: peptide found in ESR1 (gene looked up) (TLHDQVHLL; listed as Homo sapiens) [compound 264] | NSCLC, BPH, OC | UTC, BRCA, GBC_CCC, MEL | + (<100 = +) | I (<19% over-expression = I) | IV (>70% = IV) | I (<19% over-expression = I) | I (<19% over-expression = I) | I (<19% over-expression = I) | I (<19% over-expression = I) | I (<19% over-expression = I) | I (<19% over-expression = I) | I (<19% over-expression = I) | IV (>70% = IV) | IV (>70% = IV)
5 | 245 (ALLEEEEGV; listed as Homo sapiens) [compound 245] |  | NSCLC, UBC, GBC_CCC | + (<100 = +) |  |  |  |  |  |  |  |  |  |  | 
6 | 274 (TLYNPERTITV; listed as Homo sapiens) [compound 274] | NSCLC, PC, HCC |  | + (<100 = +) |  |  |  |  |  |  |  |  |  |  | 
7 | 157 (ILQDGQFLV; listed as Homo sapiens) [compound 157] |  | HCC, UBC | ++ (>=100 = ++) |  |  |  |  |  |  |  |  |  |  | 
8 | 11 (LLDPKTIFL; listed as Homo sapiens) [compound 11] | NSCLC, HCC, RCC, CRC | GBC_CCC | + (<100 = +) |  |  |  |  |  |  |  |  |  |  | 
9 | 155: peptide found in CYP4Z1 (gene looked up) (TLDSYLKAV; listed as Homo sapiens) [compound 155] |  | OC, BRCA | ++ (>=100 = ++) | I (<19% over-expression = I) | III (50-69% = III) | I (<19% over-expression = I) | I (<19% over-expression = I) | I (<19% over-expression = I) | I (<19% over-expression = I) | I (<19% over-expression = I) | I (<19% over-expression = I) | I (<19% over-expression = I) | I (<19% over-expression = I) | I (<19% over-expression = I)
